## Cell number after 72 h of treatment

Values as published with doi:10.1371/journal.pone.0140310, rounded.

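Human melanoma cells were exposed to two drugs together for 72 h in 1,536-well plates and read by automated microscopy after fixing and staining. Values are the number of DAPI-stained nuclei as a percentage of the DMSO control: 100 is no effect, lower means fewer cells. Every drug was used at one fixed concentration, the higher of two screened. These are primary screening values without error estimates.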 This is part of the screen, not chosen by result.

Drug key:
Src-I1: COc1cc2ncnc(Nc3ccc(Oc4ccccc4)cc3)c2cc1OC at 10 µM
dovitinib: CN1CCN(c2ccc3nc(-c4c(N)c5c(F)cccc5[nH]c4=O)[nH]c3c2)CC1 at 0.5 µM
GW2580: COc1ccc(COc2ccc(Cc3cnc(N)nc3N)cc2OC)cc1 at 5 µM
pazopanib: Cc1ccc(Nc2nccc(N(C)c3ccc4c(C)n(C)nc4c3)n2)cc1S(N)(=O)=O at 2 µM
PLX4720: CCCS(=O)(=O)Nc1ccc(F)c(C(=O)c2c[nH]c3ncc(Cl)cc23)c1F at 0.4 µM
tozasertib: Cc1cc(Nc2cc(N3CCN(C)CC3)nc(Sc3ccc(NC(=O)C4CC4)cc3)n2)n[nH]1 at 0.03 µM
dasatinib: Cc1nc(Nc2ncc(C(=O)Nc3c(C)cccc3Cl)s2)cc(N2CCN(CCO)CC2)n1 at 0.02 µM
nutlin-3: COc1ccc(C2=N[C@@H](c3ccc(Cl)cc3)[C@@H](c3ccc(Cl)cc3)N2C(=O)N2CCNC(=O)C2)c(OC(C)C)c1 at 0.5 µM
CX-4945: O=C(O)c1ccc2c(c1)nc(Nc1cccc(Cl)c1)c1ccncc12 at 2 µM
selumetinib: Cn1cnc2c(F)c(Nc3ccc(Br)cc3Cl)c(C(=O)NOCCO)cc21 at 0.075 µM
FH535: Cc1cc([N+](=O)[O-])ccc1NS(=O)(=O)c1cc(Cl)ccc1Cl at 5 µM
vincristine: CC[C@]1(O)C[C@H]2CN(CCc3c([nH]c4ccccc34)[C@@](C(=O)OC)(c3cc4c(cc3OC)N(C=O)[C@H]3[C@@](O)(C(=O)OC)[C@H](OC(C)=O)[C@]5(CC)C=CCN6CC[C@]43[C@@H]65)C2)C1 at 0.0005 µM
vorinostat: O=C(CCCCCCC(=O)Nc1ccccc1)NO at 0.4 µM
BMS-536924: Cc1cc(N2CCOCC2)cc2[nH]c(-c3c(NC[C@@H](O)c4cccc(Cl)c4)cc[nH]c3=O)nc12 at 1 µM
MK-2206: NC1(c2ccc(-c3nc4ccn5c(=O)[nH]nc5c4cc3-c3ccccc3)cc2)CCC1 at 2 µM
bortezomib: CC(C)C[C@H](NC(=O)[C@H](Cc1ccccc1)NC(=O)c1cnccn1)B(O)O at 0.005 µM
dorsomorphin: c1cc(-c2cnn3cc(-c4ccc(OCCN5CCCCC5)cc4)cnc23)ccn1 at 2 µM
bexarotene: C=C(c1ccc(C(=O)O)cc1)c1cc2c(cc1C)C(C)(C)CCC2(C)C at 10 µM
CHIR-265: Cn1c(Nc2ccc(C(F)(F)F)cc2)nc2cc(Oc3ccnc(-c4ncc(C(F)(F)F)[nH]4)c3)ccc21 at 0.4 µM
IMD-0354: O=C(Nc1cc(C(F)(F)F)cc(C(F)(F)F)c1)c1cc(Cl)ccc1O at 0.08 µM

For dovitinib + selumetinib the values were WM451Lu: 40.3; WM3619: 65.3; C32: 46.5.
For BMS-536924 + FH535 the values were WM451Lu: 63.5; WM3619: 49.5; C32: 80.2.
For vincristine + CX-4945 the values were WM451Lu: 56.3; WM3619: 49.5; C32: 89.1.
For pazopanib + IMD-0354 the values were WM451Lu: 95.9; WM3619: 116; C32: 125.
For dasatinib + PLX4720 the values were WM451Lu: 64.2; WM3619: 51.8; C32: 62.4.
For bortezomib + dasatinib the values were WM451Lu: 16.7; WM3619: 2.0; C32: 22.5.
For GW2580 + selumetinib the values were WM451Lu: 75.8; WM3619: 84.3; C32: 97.7.
For bexarotene + dorsomorphin the values were WM451Lu: 84.9; WM3619: 72.6; C32: 77.2.
For vincristine + CHIR-265 the values were WM451Lu: 29.6; WM3619: 36.7; C32: 49.9.
For Src-I1 + IMD-0354 the values were WM451Lu: 103; WM3619: 85.4; C32: 90.6.
For bexarotene + tozasertib the values were WM451Lu: 87.9; WM3619: 103; C32: 95.6.
For vorinostat + nutlin-3 the values were WM451Lu: 74.8; WM3619: 69.4; C32: 75.7.
For bexarotene + GW2580 the values were WM451Lu: 91.6; WM3619: 100; C32: 107.
For MK-2206 + IMD-0354 the values were WM451Lu: 88.3; WM3619: 83.6; C32: 95.1.
For vincristine + dasatinib the values were WM451Lu: 36.4; WM3619: 53.2; C32: 52.1.
For vorinostat + CX-4945 the values were WM451Lu: 68.7; WM3619: 58.3; C32: 90.0.
For IMD-0354 + dorsomorphin the values were WM451Lu: 80.5; WM3619: 94.7; C32: 64.1.

The last 2 entries again:

{"drugs": "vorinostat + CX-4945", "WM451Lu": 68.7, "WM3619": 58.3, "C32": 90.0}
{"drugs": "IMD-0354 + dorsomorphin", "WM451Lu": 80.5, "WM3619": 94.7, "C32": 64.1}